Measured data: PubChem BioAssay AID1508597 (Cure First, 2020)

- Aim: 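Knock-downs altering ovarian cancer cell survival with or without PARP inhibitor rucaparib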 (primary screen)
- System: human ovarian carcinoma lines grown from tumours: OCI-P5x (papillary serous) and OCI-C5x (clear cell)
- Reagent: siRNA pool against human genes, 1.25 pmol siRNA per well
- Duration: 72 h or 96 h, depending on the cell culture
- Conditions: rucaparib 20 µM (about IC30) or vehicle, present until read-out
- Measurement: 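Luminescent ATP-based viability assay read 72 or 96 h after transfection, depending on culture, given as normalised percent viability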
- Direction: viability, normalised: higher = more viable cells remaining
- Call rule: 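Active when normalised viability falls below 80 percent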
- Meaning of the calls: active = viability under 80%; inactive = viability 80% or more
Here is one part, drawn at random, of about 2,100 reagents. 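Calls flag viability under 80% in either arm, not effects specific to rucaparib; the reference for percent is not stated.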 The record does not give: the 100% reference.

gene | rucaparib or vehicle | cell line | technical replicate | viability, normalised (%) | Outcome
PDE4C (phosphodiesterase 4C) | Rucaparib | OCI-C5x (clear cell) | 1 | 59.2 | active
PDE4C (phosphodiesterase 4C) | Rucaparib | OCI-C5x (clear cell) | 2 | 52.4 | active
PDE4C (phosphodiesterase 4C) | Rucaparib | OCI-C5x (clear cell) | 3 | 54.2 | active
PDE4C (phosphodiesterase 4C) | Rucaparib | OCI-P5x (serous) | 1 | 48.8 | active
PDE4C (phosphodiesterase 4C) | Rucaparib | OCI-P5x (serous) | 2 | 55.2 | active
PDE4C (phosphodiesterase 4C) | Rucaparib | OCI-P5x (serous) | 3 | 54.9 | active
PDE4C (phosphodiesterase 4C) | Vehicle | OCI-C5x (clear cell) | 1 | 68 | active
PDE4C (phosphodiesterase 4C) | Vehicle | OCI-C5x (clear cell) | 2 | 51.9 | active
PDE4C (phosphodiesterase 4C) | Vehicle | OCI-C5x (clear cell) | 3 | 51.3 | active
PDE4C (phosphodiesterase 4C) | Vehicle | OCI-P5x (serous) | 1 | 74.9 | active
PDE4C (phosphodiesterase 4C) | Vehicle | OCI-P5x (serous) | 2 | 55.5 | active
PDE4C (phosphodiesterase 4C) | Vehicle | OCI-P5x (serous) | 3 | 51.2 | active
POU5F1 (POU class 5 homeobox 1) | Rucaparib | OCI-C5x (clear cell) | 1 | 51 | active
POU5F1 (POU class 5 homeobox 1) | Rucaparib | OCI-C5x (clear cell) | 2 | 43.7 | active
POU5F1 (POU class 5 homeobox 1) | Rucaparib | OCI-C5x (clear cell) | 3 | 45.3 | active
POU5F1 (POU class 5 homeobox 1) | Rucaparib | OCI-P5x (serous) | 1 | 60.8 | active
POU5F1 (POU class 5 homeobox 1) | Rucaparib | OCI-P5x (serous) | 2 | 52 | active
POU5F1 (POU class 5 homeobox 1) | Rucaparib | OCI-P5x (serous) | 3 | 46.7 | active
POU5F1 (POU class 5 homeobox 1) | Vehicle | OCI-C5x (clear cell) | 1 | 38.8 | active
POU5F1 (POU class 5 homeobox 1) | Vehicle | OCI-C5x (clear cell) | 2 | 30.7 | active
POU5F1 (POU class 5 homeobox 1) | Vehicle | OCI-C5x (clear cell) | 3 | 41.4 | active
POU5F1 (POU class 5 homeobox 1) | Vehicle | OCI-P5x (serous) | 1 | 62.4 | active
POU5F1 (POU class 5 homeobox 1) | Vehicle | OCI-P5x (serous) | 2 | 80.6 | inactive
POU5F1 (POU class 5 homeobox 1) | Vehicle | OCI-P5x (serous) | 3 | 67.5 | active
NKX2-3 (NK2 homeobox 3) | Rucaparib | OCI-C5x (clear cell) | 1 | 37.7 | active
NKX2-3 (NK2 homeobox 3) | Rucaparib | OCI-C5x (clear cell) | 2 | 50.5 | active
NKX2-3 (NK2 homeobox 3) | Rucaparib | OCI-C5x (clear cell) | 3 | 37 | active
NKX2-3 (NK2 homeobox 3) | Rucaparib | OCI-P5x (serous) | 1 | 34.4 | active
NKX2-3 (NK2 homeobox 3) | Rucaparib | OCI-P5x (serous) | 2 | 39.3 | active
NKX2-3 (NK2 homeobox 3) | Rucaparib | OCI-P5x (serous) | 3 | 40.2 | active
NKX2-3 (NK2 homeobox 3) | Vehicle | OCI-C5x (clear cell) | 1 | 37.9 | active
NKX2-3 (NK2 homeobox 3) | Vehicle | OCI-C5x (clear cell) | 2 | 35.4 | active
NKX2-3 (NK2 homeobox 3) | Vehicle | OCI-C5x (clear cell) | 3 | 50.2 | active
NKX2-3 (NK2 homeobox 3) | Vehicle | OCI-P5x (serous) | 1 | 42.5 | active
NKX2-3 (NK2 homeobox 3) | Vehicle | OCI-P5x (serous) | 2 | 38.2 | active
NKX2-3 (NK2 homeobox 3) | Vehicle | OCI-P5x (serous) | 3 | 55.2 | active
ACTL6B (actin like 6B) | Rucaparib | OCI-C5x (clear cell) | 1 | 63.9 | active
ACTL6B (actin like 6B) | Rucaparib | OCI-C5x (clear cell) | 2 | 56.5 | active
ACTL6B (actin like 6B) | Rucaparib | OCI-C5x (clear cell) | 3 | 56 | active
ACTL6B (actin like 6B) | Rucaparib | OCI-P5x (serous) | 1 | 71.6 | active
ACTL6B (actin like 6B) | Rucaparib | OCI-P5x (serous) | 2 | 66.6 | active
ACTL6B (actin like 6B) | Rucaparib | OCI-P5x (serous) | 3 | 54.6 | active
ACTL6B (actin like 6B) | Vehicle | OCI-C5x (clear cell) | 1 | 50.3 | active
ACTL6B (actin like 6B) | Vehicle | OCI-C5x (clear cell) | 2 | 38.7 | active
ACTL6B (actin like 6B) | Vehicle | OCI-C5x (clear cell) | 3 | 46.1 | active
ACTL6B (actin like 6B) | Vehicle | OCI-P5x (serous) | 1 | 55.9 | active
ACTL6B (actin like 6B) | Vehicle | OCI-P5x (serous) | 2 | 62.5 | active
ACTL6B (actin like 6B) | Vehicle | OCI-P5x (serous) | 3 | 118 | inactive

9 successive records already listed, for reference:
gene | rucaparib or vehicle | cell line | technical replicate | viability, normalised (%) | Outcome
NKX2-3 (NK2 homeobox 3) | Vehicle | OCI-P5x (serous) | 1 | 42.5 | active
NKX2-3 (NK2 homeobox 3) | Vehicle | OCI-P5x (serous) | 2 | 38.2 | active
NKX2-3 (NK2 homeobox 3) | Vehicle | OCI-P5x (serous) | 3 | 55.2 | active
ACTL6B (actin like 6B) | Rucaparib | OCI-C5x (clear cell) | 1 | 63.9 | active
ACTL6B (actin like 6B) | Rucaparib | OCI-C5x (clear cell) | 2 | 56.5 | active
ACTL6B (actin like 6B) | Rucaparib | OCI-C5x (clear cell) | 3 | 56 | active
ACTL6B (actin like 6B) | Rucaparib | OCI-P5x (serous) | 1 | 71.6 | active
ACTL6B (actin like 6B) | Rucaparib | OCI-P5x (serous) | 2 | 66.6 | active
ACTL6B (actin like 6B) | Rucaparib | OCI-P5x (serous) | 3 | 54.6 | active

The listing continues:
gene | rucaparib or vehicle | cell line | technical replicate | viability, normalised (%) | Outcome
TESK1 (testis associated actin remodelling kinase 1) | Rucaparib | OCI-C5x (clear cell) | 1 | 44.2 | active
TESK1 (testis associated actin remodelling kinase 1) | Rucaparib | OCI-C5x (clear cell) | 2 | 53.8 | active
TESK1 (testis associated actin remodelling kinase 1) | Rucaparib | OCI-C5x (clear cell) | 3 | 53.5 | active
TESK1 (testis associated actin remodelling kinase 1) | Rucaparib | OCI-P5x (serous) | 1 | 71.5 | active
TESK1 (testis associated actin remodelling kinase 1) | Rucaparib | OCI-P5x (serous) | 2 | 78.8 | active
TESK1 (testis associated actin remodelling kinase 1) | Rucaparib | OCI-P5x (serous) | 3 | 71.1 | active
TESK1 (testis associated actin remodelling kinase 1) | Vehicle | OCI-C5x (clear cell) | 1 | 55.3 | active
TESK1 (testis associated actin remodelling kinase 1) | Vehicle | OCI-C5x (clear cell) | 2 | 45.2 | active
TESK1 (testis associated actin remodelling kinase 1) | Vehicle | OCI-C5x (clear cell) | 3 | 44.6 | active
TESK1 (testis associated actin remodelling kinase 1) | Vehicle | OCI-P5x (serous) | 1 | 66.9 | active
TESK1 (testis associated actin remodelling kinase 1) | Vehicle | OCI-P5x (serous) | 2 | 80.1 | inactive
TESK1 (testis associated actin remodelling kinase 1) | Vehicle | OCI-P5x (serous) | 3 | 104 | inactive
ZAP70 (zeta chain of T cell receptor associated protein kinase 70) | Rucaparib | OCI-C5x (clear cell) | 1 | 56.4 | active
ZAP70 (zeta chain of T cell receptor associated protein kinase 70) | Rucaparib | OCI-C5x (clear cell) | 2 | 67.3 | active
ZAP70 (zeta chain of T cell receptor associated protein kinase 70) | Rucaparib | OCI-C5x (clear cell) | 3 | 84.3 | inactive
ZAP70 (zeta chain of T cell receptor associated protein kinase 70) | Rucaparib | OCI-P5x (serous) | 1 | 87.9 | inactive
ZAP70 (zeta chain of T cell receptor associated protein kinase 70) | Rucaparib | OCI-P5x (serous) | 2 | 85.9 | inactive
ZAP70 (zeta chain of T cell receptor associated protein kinase 70) | Rucaparib | OCI-P5x (serous) | 3 | 73.2 | active
ZAP70 (zeta chain of T cell receptor associated protein kinase 70) | Vehicle | OCI-C5x (clear cell) | 1 | 71.7 | active
ZAP70 (zeta chain of T cell receptor associated protein kinase 70) | Vehicle | OCI-C5x (clear cell) | 2 | 80.8 | inactive
ZAP70 (zeta chain of T cell receptor associated protein kinase 70) | Vehicle | OCI-C5x (clear cell) | 3 | 79.4 | active
ZAP70 (zeta chain of T cell receptor associated protein kinase 70) | Vehicle | OCI-P5x (serous) | 1 | 105 | inactive
ZAP70 (zeta chain of T cell receptor associated protein kinase 70) | Vehicle | OCI-P5x (serous) | 2 | 75.3 | active
ZAP70 (zeta chain of T cell receptor associated protein kinase 70) | Vehicle | OCI-P5x (serous) | 3 | 81 | inactive
TDRD5 (tudor domain containing 5) | Rucaparib | OCI-C5x (clear cell) | 1 | 52.2 | active
TDRD5 (tudor domain containing 5) | Rucaparib | OCI-C5x (clear cell) | 2 | 61.9 | active
TDRD5 (tudor domain containing 5) | Rucaparib | OCI-C5x (clear cell) | 3 | 54.9 | active
TDRD5 (tudor domain containing 5) | Rucaparib | OCI-P5x (serous) | 1 | 60.7 | active
TDRD5 (tudor domain containing 5) | Rucaparib | OCI-P5x (serous) | 2 | 56.8 | active
TDRD5 (tudor domain containing 5) | Rucaparib | OCI-P5x (serous) | 3 | 61.5 | active
TDRD5 (tudor domain containing 5) | Vehicle | OCI-C5x (clear cell) | 1 | 53.7 | active
TDRD5 (tudor domain containing 5) | Vehicle | OCI-C5x (clear cell) | 2 | 63.1 | active
TDRD5 (tudor domain containing 5) | Vehicle | OCI-C5x (clear cell) | 3 | 61.9 | active
TDRD5 (tudor domain containing 5) | Vehicle | OCI-P5x (serous) | 1 | 74 | active
TDRD5 (tudor domain containing 5) | Vehicle | OCI-P5x (serous) | 2 | 82.4 | inactive
TDRD5 (tudor domain containing 5) | Vehicle | OCI-P5x (serous) | 3 | 61.5 | active
